Measurements reported in PubChem BioAssay AID1117269 (University of Michigan, 2014).

Purpose: 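Kinases whose silencing alters a TGF-beta responsive luciferase reporter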 (primary screen)
Cell system: human A549 lung cancer and 1833 breast cancer (MDA-MB-231-derived) cell lines carrying a stable BTR luciferase reporter
Knock-down reagent: siRNA pool against human genes
Duration: 72 h after transfection, then 1 h TGF-beta before the read
Challenge: TGF-beta 10 ng/mL added one hour before luciferin and read-out
Measured: 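Live-cell BTR luciferase signal at 72 h after transfection and 1 h of TGF-beta at 10 ng/mL, fold versus scrambled siRNA, triplicate mean for each line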
Reading the numbers: fold over scrambled siRNA, A549 and fold over scrambled siRNA, 1833: higher = more reporter light, weaker TGF-beta receptor signalling
Hit rule: 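Active if a hit in A549 or 1833; a line's hit exceeds an upper quartile-based cutoff on mean log fold values, applied per plate and across the whole screen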
Calls: active = hit in at least one line; inactive = hit in neither line
The deposit covers 714 reagents; below is an unselected part. 49 of all reagents (6.9%) count as active. 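Active means a hit in at least one line; per-line hit columns show which; some siRNA pools appear more than once.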 No sequences are given here. Not given: the amount of reagent.

PRKCB (protein kinase C beta) [SID56478724] — fold over scrambled siRNA, A549 = 1.14; fold over scrambled siRNA, 1833 = 4.67; hit in A549 = not a hit in A549; hit in 1833 = not a hit in 1833; Outcome = inactive
MAPKAPK3 (MAPK activated protein kinase 3) [SID56478946] — fold over scrambled siRNA, A549 = 2.03; fold over scrambled siRNA, 1833 = 1.84; hit in A549 = not a hit in A549; hit in 1833 = not a hit in 1833; Outcome = inactive
KHK (ketohexokinase) [SID135621242] — fold over scrambled siRNA, A549 = 2; fold over scrambled siRNA, 1833 = 2.57; hit in A549 = not a hit in A549; hit in 1833 = not a hit in 1833; Outcome = inactive
PDK4 (pyruvate dehydrogenase kinase 4) [SID152155412] — fold over scrambled siRNA, A549 = 5; fold over scrambled siRNA, 1833 = 7.78; hit in A549 = not a hit in A549; hit in 1833 = not a hit in 1833; Outcome = inactive
GALK1 (galactokinase 1) [SID56479189] — fold over scrambled siRNA, A549 = 0.857; fold over scrambled siRNA, 1833 = 2; hit in A549 = not a hit in A549; hit in 1833 = not a hit in 1833; Outcome = inactive
SPHK1 (sphingosine kinase 1) [SID152154122] — fold over scrambled siRNA, A549 = 0.743; fold over scrambled siRNA, 1833 = 1.94; hit in A549 = not a hit in A549; hit in 1833 = not a hit in 1833; Outcome = inactive
AK7 (adenylate kinase 7) [SID152153423] — fold over scrambled siRNA, A549 = 3.38; fold over scrambled siRNA, 1833 = 5.27; hit in A549 = not a hit in A549; hit in 1833 = not a hit in 1833; Outcome = inactive
OXSR1 (oxidative stress responsive kinase 1) [SID152151868] — fold over scrambled siRNA, A549 = 3.83; fold over scrambled siRNA, 1833 = 5.3; hit in A549 = not a hit in A549; hit in 1833 = not a hit in 1833; Outcome = inactive

Part of the list above in another layout:
gene symbol | PubChem SID | fold over scrambled siRNA, A549 | fold over scrambled siRNA, 1833 | hit in A549 | hit in 1833 | Outcome
PRKCB (protein kinase C beta) | SID56478724 | 1.14 | 4.67 | not a hit in A549 | not a hit in 1833 | inactive
MAPKAPK3 (MAPK activated protein kinase 3) | SID56478946 | 2.03 | 1.84 | not a hit in A549 | not a hit in 1833 | inactive

Additional entries follow.
PINK1 (PTEN induced kinase 1) [SID152149500] — fold over scrambled siRNA, A549 = 1.2; fold over scrambled siRNA, 1833 = 1.8; hit in A549 = not a hit in A549; hit in 1833 = not a hit in 1833; Outcome = inactive
SGK3 (serum/glucocorticoid regulated kinase family member 3) [SID56478777] — fold over scrambled siRNA, A549 = 4.9; fold over scrambled siRNA, 1833 = 8.14; hit in A549 = not a hit in A549; hit in 1833 = not a hit in 1833; Outcome = inactive
ULK2 (unc-51 like autophagy activating kinase 2) [SID56479062] — fold over scrambled siRNA, A549 = 0.852; fold over scrambled siRNA, 1833 = 0.933; hit in A549 = not a hit in A549; hit in 1833 = not a hit in 1833; Outcome = inactive
PRKAB1 (protein kinase AMP-activated non-catalytic subunit beta 1) [SID134312708] — fold over scrambled siRNA, A549 = 1.48; fold over scrambled siRNA, 1833 = 0.857; hit in A549 = not a hit in A549; hit in 1833 = not a hit in 1833; Outcome = inactive
PIK3R4 (phosphoinositide-3-kinase regulatory subunit 4) [SID135620923] — fold over scrambled siRNA, A549 = 3.28; fold over scrambled siRNA, 1833 = 3.98; hit in A549 = not a hit in A549; hit in 1833 = not a hit in 1833; Outcome = inactive
NEK5 (NIMA related kinase 5) [SID135624240] — fold over scrambled siRNA, A549 = 5.14; fold over scrambled siRNA, 1833 = 4.79; hit in A549 = not a hit in A549; hit in 1833 = not a hit in 1833; Outcome = inactive
